According to patent US20240190970A1:
These are yes or no findings as the source states them, for the method shown. Some entries that bind do so weakly or less than the wild type. Sequences can lack the tags named with a protein.

The chains behind the UniProt entries cited, without tags or fusion partners. Where a name states a change or a piece, a line headed by the entry shows the natural chain unless it says otherwise. A line that says so, or that is headed by a name, gives the form on record, which may keep a tag or linker.
recombinant, full length human Galectin-9 (R&D Systems 2045-GA) (O00182, form named): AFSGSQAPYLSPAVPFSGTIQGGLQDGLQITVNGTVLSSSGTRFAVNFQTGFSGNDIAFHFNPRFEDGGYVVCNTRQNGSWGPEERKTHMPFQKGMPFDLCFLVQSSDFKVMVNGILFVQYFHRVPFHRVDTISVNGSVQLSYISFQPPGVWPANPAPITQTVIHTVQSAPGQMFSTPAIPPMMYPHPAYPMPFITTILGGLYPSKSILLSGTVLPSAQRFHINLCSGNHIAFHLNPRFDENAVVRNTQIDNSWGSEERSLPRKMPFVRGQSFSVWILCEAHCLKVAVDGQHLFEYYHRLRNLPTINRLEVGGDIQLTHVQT

Target: recombinant, full length human Galectin-9 (R&D Systems 2045-GA) (human) (UniProt O00182)
Test: ELISA, full length galectin-9 immobilized, CD206 titrated

binding: binds
B1: recombinant, His-tagged CD206 (receptor, human, UniProt P22897 19-1383, looked up)
chain: LLDTRQFLIYNEDHKRCVDAVSPSAVQTAACNQDAESQKFRWVSESQIMSVAFKLCLGVPSKTDWVAITLYACDSKSEFQKWECKNDTLLGIKGEDLFFNYGNRQEKNIMLYKGSGLWSRWKIYGTTDNLCSRGYEAMYTLLGNANGATCAFPFKFENKWYADCTSAGRSDGWLWCGTTTDYDTDKLFGYCPLKFEGSESLWNKDPLTSVSYQINSKSALTWHQARKSCQQQNAELLSITEIHEQTYLTGLTSSLTSGLWIGLNSLSFNSGWQWSDRSPFRYLNWLPGSPSAEPGKSCVSLNPGKNAKWENLECVQKLGYICKKGNTTLNSFVIPSESDVPTHCPSQWWPYAGHCYKIHRDEKKIQRDALTTCRKEGGDLTSIHTIEELDFIISQLGYEPNDELWIGLNDIKIQMYFEWSDGTPVTFTKWLRGEPSHENNRQEDCVVMKGKDGYWADRGCEWPLGYICKMKSRSQGPEIVEVEKGCRKGWKKHHFYCYMIGHTLSTFAEANQTCNNENAYLTTIEDRYEQAFLTSFVGLRPEKYFWTGLSDIQTKGTFQWTIEEEVRFTHWNSDMPGRKPGCVAMRTGIAGGLWDVLKCDEKAKFVCKHWAEGVTHPPKPTTTPEPKCPEDWGASSRTSLCFKLYAKGKHEKKTWFESRDFCRALGGDLASINNKEEQQTIWRLITASGSYHKLFWLGLTYGSPSEGFTWSDGSPVSYENWAYGEPNNYQNVEYCGELKGDPTMSWNDINCEHLNNWICQIQKGQTPKPEPTPAPQDNPPVTEDGWVIYKDYQYYFSKEKETMDNARAFCKRNFGDLVSIQSESEKKFLWKYVNRNDAQSAYFIGLLISLDKKFAWMDGSKVDYVSWATGEPNFANEDENCVTMYSNSGFWNDINCGYPNAFICQRHNSSINATTVMPTMPSVPSGCKEGWNFYSNKCFKIFGFMEEERKNWQEARKACIGFGGNLVSIQNEKEQAFLTYHMKDSTFSAWTGLNDVNSEHTFLWTDGRGVHYTNWGKGYPGGRRSSLSYEDADCVVIIGGASNEAGKWMDDTCDSKRGYICQTRSDPSLTNPPATIQTDGFVKYGKSSYSLMRQKFQWHEAETYCKLHNSLIASILDPYSNAFAWLQMETSNERVWIALNSNLTDNQYTWTDKWRVRYTNWAADEPKLKSACVYLDLDGYWKTAHCNESFYFLCKRSDEIPATEPPQLPGRCPESDHTAWIPFHGHCYYIESSYTRNWGQASLECLRMGSSLVSIESAAESSFLSYRVEPLKSKTNFWIGLFRNVEGTWLWINNSPVSFVNWNTGDPSGERNDCVALHASSGFWSNIHCSSYKGYICKRPKIIDAKPTHELLTTKADTRKMDPSK
